For 36 molecules, cell number change and AC50 results are on record in PubChem BioAssay AID2685 (National Center for Advancing Translational Sciences (NCATS), 2010).

This is one part of the list. The main result of the screen is listed elsewhere. These columns were measured beside it and carry no call. Most of these compounds were active or inconclusive in the main read-out, so they are no random draw. Words in brackets tell the shape of the fitted curve; partial curves, single points and poor fits give uncertain potencies.

A short description of the test: qHTS Assay for Lipid Storage Modulators in Drosophila S3 Cells.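 As to cell number change: cells counted by Cell Tracker Red CMTPX staining in the red channel.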 The note with it: BODIPY lipid droplet fluorescence, 18-24 h; for cell number change: measured here: cell count max response, cells fed with added oleic acid. In a few lines: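 Drosophila S3 cells loaded with oleic acid (400 uM, as added) and compounds at several concentrations; lipid droplets imaged by 488-nm laser-scanning cytometry, 500–530 nm intensity and object ratio to cell channel. Percent activity normalized to 20 uM Triacsin C.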
In general terms: Quantitative high-throughput screening tests each substance at several concentrations.

The mark [1] stands for this setting: measured here: lipid fluorescence (Fed channel) AC50, cells fed with added oleic acid.
Where [2] appears, read: measured here: cell number channel AC50, cells fed with added oleic acid.

In the case of `Cc1nnc(Nc2ccc3c(c2)OCO3)c2ccccc12`, the cell number change is -2.89%. For the same molecule, the concentration at half-maximal activity (AC50) under setting [1] was 0.0291 µM [rising, full curve, poor fit].
On to `Cc1cc(C)n2nc(C(=O)Nc3nccs3)nc2n1`, for which the cell number change was -42.8%. The AC50 under setting [2] was 4.11 µM [falling, full curve]. Moreover, the AC50 under setting [1] is 0.651 µM [falling, partial curve].
On to `CCOC(=O)CSc1nnc(CNC(=O)c2ccc([N+](=O)[O-])cc2)n1C`, for which the cell number change is 48.9%. Also, the AC50 under setting [2] is 0.0058 µM [falling, full curve, poor fit].
Turning to `CCCCCC(=O)N[C@@H](c1ccccc1)[C@@H](O)C(=O)O[C@H]1C[C@@]2(O)[C@@H](OC(=O)c3ccccc3)C3[C@](C)(C(=O)[C@H](OC(C)=O)C(=C1C)C2(C)C)[C@@H](O)C[C@H]1OC[C@@]31OC(C)=O` (stereo partly drawn), the cell number change is -11.3%.
For the molecule `CCc1c(C(=O)NCCc2ccc(OC)c(OC)c2)[nH]c(C)c1C(C)=O`, the cell number change was found to be 259%. Further, the half-maximal activity concentration (AC50) under setting [2] is 14.6 µM [rising, partial curve]. Besides, the half-maximal activity concentration (AC50) under setting [1] was 16.4 µM [rising, partial curve].
`COc1ccc(CCN(Cc2cc3cc(C)c(C)cc3nc2Cl)C(=O)C2CC2)cc1`: the cell number change was 6.13%. Further, under setting [1], the half-maximal activity concentration (AC50) was 6.51 µM [falling, single point].
With `N#Cc1ccccc1OCC(=O)OCCCOC(=O)COc1ccccc1C#N`, the cell number change is 13.5%. In addition, the AC50 under setting [1] was 29.1 µM [falling, single point].
As for `CN(Cc1cccs1)C(=O)Cn1cnc2ccccc2c1=O`, the cell number change is 16.7%.
Regarding `O=C(NCC1CCCO1)C(c1cccs1)N(Cc1cccs1)C(=O)c1ccc(-c2ccccc2)[nH]1` (stereo not drawn), the cell number change stood at 4.37%. For the same molecule, the AC50 under setting [1] is 2.06 µM [rising, full curve, poor fit].
Regarding `Cc1ccc2nc3c(cc(C(=O)NCC4CCCO4)c(=N)n3CC3CCCO3)c(=O)n2c1` (stereo not drawn), the cell number change came to 34.3%. For the same molecule, under setting [2], the AC50 was 5.8 µM [rising, partial curve].
Consider `Cc1cc2ncc(-c3cccs3)nc2cc1C`, for which the cell number change amounted to 101%. In addition, the AC50 under setting [2] is 14.6 µM [rising, partial curve, poor fit]. Also, the half-maximal activity concentration (AC50) under setting [1] was 2.91 µM [rising, single point].
Regarding `COC(=O)c1sc(N)c(C(=O)OC)c1CSc1nnc(-c2ccccc2Cl)n1C`, the cell number change was determined as 37.1%. Further, under setting [2], the half-maximal activity concentration (AC50) is 1.64 µM [rising, full curve]. Further, under setting [1], the AC50 is 0.00517 µM [falling, full curve, poor fit].
`C[C@]12CC[C@@H]3c4ccc(O)cc4CC[C@H]3[C@@H]1CC[C@@H]2O`: the cell number change was 2.61%. Also, under setting [1], the AC50 was 20.6 µM [falling, partial curve].
Consider `O=C(NC1(C(F)(F)F)C(=O)Nc2c1c(=O)[nH]c(=O)n2Cc1ccco1)C1CCCCC1` (stereo not drawn), for which the cell number change is -80.8%. In addition, under setting [2], the half-maximal activity concentration (AC50) was 18.4 µM [falling, single point]. Moreover, under setting [1], the half-maximal activity concentration (AC50) was 0.58 µM [rising, single point].
In the case of `O=C(Cc1ccccc1)c1c[nH]c(C(=O)NCCCN2CCOCC2)c1`, the cell number change was -3.39%. Besides, under setting [2], the AC50 is 0.92 µM [falling, full curve, poor fit]. For the same molecule, under setting [1], the AC50 is 1.46 µM [falling, partial curve].
In the case of `Fc1ccc(C2c3cccn3CCN2C(=S)Nc2cccc(F)c2)cc1` (stereo not drawn), the cell number change worked out at 20.4%. Also, the AC50 under setting [2] was 0.517 µM [falling, single point].
As to `CCOC(=O)c1[nH]c(C)c(C(=O)OCC(=O)NC(=O)NC(C)(C)C)c1C`, the cell number change is 1.79%. Also, the AC50 under setting [1] was 1.64 µM [rising, full curve].
As to `CC1CCC(NC(=O)COC(=O)C2=NN(c3ccccc3)C(=O)CC2)CC1` (stereo not drawn), the cell number change was -2.9%.
As for `COc1cc(OC)cc(C(=O)OCC(=O)Nc2cccc(C(C)=O)c2)c1`, the cell number change was determined as 36.3%. For the same molecule, under setting [2], the AC50 is 23.1 µM [rising, partial curve, poor fit]. For the same molecule, the AC50 under setting [1] is 6.51 µM [rising, single point].
For `COc1ccc(OC)c(C(=O)CSc2nnc(-c3cccs3)o2)c1`, the cell number change was -0.593%. Under setting [2], the AC50 is 1.84 µM [rising, partial curve].
As to `C=CCc1ccc(OCCOc2ccc(/C=N/n3cnnc3)cc2OCC)c(OC)c1`, the cell number change was -4.34%. Further, under setting [1], the AC50 is 25.9 µM [rising, partial curve, poor fit].
Consider `Cc1ccc(S(=O)(=O)N2CCCCC2)c2nsnc12`, for which the cell number change is -11.8%.
The same measure, in the same setting: next, `COC(=O)/C(C#N)=C/c1c(N2CCN(c3ccccc3)CC2)nc2c(C)cccn2c1=O`: 2.78%.
As for `Cc1ccc(Nc2nc(N)c([N+](=O)[O-])c(N3CCOCC3)n2)cc1`, the cell number change is -1.99%. Also, under setting [1], the concentration at half-maximal activity (AC50) is 4.11 µM [rising, single point].
For the molecule `O=C(O)CCC(=O)NN1C(=O)c2ccccc2NC1c1ccc(F)cc1` (stereo not drawn), the cell number change is -38.9%.
Take `Cc1ccc(NC(=O)c2cc(-n3cnnc3)ccc2Cl)c(C)c1`: the cell number change is -1.3%. Moreover, the concentration at half-maximal activity (AC50) under setting [1] was 2.59 µM [rising, partial curve, poor fit].
With `Cc1ccsc1/C=N/NC(=O)CNC(=O)c1c(F)cccc1Cl`, the cell number change was -2.97%.
As to `CN(C)CCCn1c2c(c(SCC(=O)Nc3ccc4c(c3)OCO4)nc1=O)CCCC2`, the cell number change is -13.7%. Also, the AC50 under setting [1] is 13 µM [rising, partial curve].
`COc1ccc(S(=O)(=O)N2CCN=C2SCc2cccc(C)c2)cc1`: the cell number change is 28%. The AC50 under setting [1] is 2.82 µM [rising, partial curve, poor fit].
Consider `O=C(Nc1nnc(C2CC2)s1)c1cc(S(=O)(=O)N2CCCCC2)ccc1N1CCOCC1`, for which the cell number change stood at 15.5%. In addition, the AC50 under setting [1] was 10.3 µM [rising, partial curve].
With `Cc1cc(C)cc(NC(=O)C2CCCN(S(=O)(=O)c3cnc[nH]3)C2)c1` (stereo not drawn), the cell number change was determined as 35.9%. Besides, the concentration at half-maximal activity (AC50) under setting [2] is 0.058 µM [rising, full curve, poor fit].
In the case of `CCC(C(=O)OCC(=O)c1ccc(OC)cc1OC)c1ccccc1` (stereo not drawn), the cell number change is -35%. Further, the AC50 under setting [2] is 16.4 µM [falling, single point].
Take `CC(=O)NC(c1ccco1)c1cc(Cl)c2ccc(N(C)C)nc2c1O` (stereo not drawn): the cell number change was -11.7%. For the same molecule, the AC50 under setting [1] was 29.1 µM [rising, single point].
On to `COc1ccc(NS(=O)(=O)c2ccc3ccccc3c2)c2ncccc12`, for which the cell number change was -14.5%. Also, the AC50 under setting [1] is 35.5 µM [falling, single point].
Regarding `Clc1ccc2c(c1)C(C1=NCCN1)c1ccccc1CS2` (stereo not drawn), the cell number change was 47.1%. Moreover, the AC50 under setting [2] was 0.82 µM [rising, full curve, poor fit]. Moreover, the concentration at half-maximal activity (AC50) under setting [1] is 29.1 µM [rising, single point].
As for `Cc1nn(C)c(C(=O)NC(=S)Nc2ccc([N+](=O)[O-])cc2)c1Cl`, the cell number change is -39%. Besides, under setting [2], the AC50 was 9.2 µM [falling, partial curve].

Broadly, the AC50 is the midpoint of the concentration-response curve, whichever way the signal moves. Low values mean greater potency, high ones weaker potency.
